Measurements reported in PubChem BioAssay AID504791 (Drosophila RNAi Screening Center, 2011).
The deposit covers about 23,000 reagents; shown is an unselected part of those that have a named target and a result. Of all reagents, 199 (0.86%) were called active. 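Plate-scaled ratios behind the calls are not deposited; printed light signals are raw; many rows marked increased or decreased are still called inactive.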 Unmarked entries are inactive. A plus sign joins genes that one reagent is predicted to hit. Reagent sequences are not shown. Not stated in the record: the direction of the score.

Aim: 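Factors in Argonaute-based small RNA production and activity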 (primary screen)
Cells: Drosophila S2-derived reporter cells
Knock-down reagent: long dsRNA against Drosophila genes, about 150-250 ng dsRNA per well (siRNA assay); about 80-120 ng (miRNA assay)
Duration: about 5 days (siRNA assay); about 4 days (miRNA assay)
Conditions: copper sulfate induction of reporters: 25 µM (siRNA assay); 200 mM stated (miRNA assay), 1-2 days before reading
Read-out: 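Dual luciferase assay: Renilla to firefly signal ratio in each well, scaled to the mean ratio of its plate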
Call rule: 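First-pass picks had plate-scaled ratios over 1.5 for the siRNA assay, over 1.6 for the miRNA assay, or under 0.6; two distinct dsRNAs had to score alike on retest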

gene	dsRNA	stable siRNA reporter change	miRNA reporter change	stable assay Renilla, run 1 (luminescence)	stable assay firefly, run 1 (luminescence)
jv (javelin)	DRSC08831			4728	3.24e5
jv (javelin)	DRSC08832			5152	4.09e5
CG14410	DRSC19596			5676	4.88e5
ImpE2 (Ecdysone-inducible gene E2)	DRSC08665			7162	4.66e5
Had2 (beta Hydroxy acid dehydrogenase 2)	DRSC05971			8400	4.36e5
sax (saxophone)	DRSC07675			8002	5.33e5
CG12990	DRSC19510			6231	5.18e5
CG13230	DRSC06350		reporter ratio raised past the hit cutoff	6932	4.44e5
CG13230	DRSC26778		reporter ratio raised past the hit cutoff		
CG1231	DRSC08267		reporter ratio lowered past the hit cutoff	4627	3.25e5
Nup153 (Nucleoporin 153kD)	DRSC19904			5687	3.45e5
CG9147	DRSC03147			7455	3.32e5
ldbr (lariat debranching enzyme)	DRSC10933			8763	3.65e5
CG13698	DRSC10047			9928	4.24e5
Zmynd8 (Zinc finger MYND-type containing 8)	DRSC15310			8318	3.81e5
CG7091	DRSC12944			5371	4.34e5
CG7091	DRSC16197			6718	4.85e5
TwdlU (TweedleU)	DRSC12224			8695	6.01e5
Ac13E (Adenylyl cyclase 13E)	DRSC19325			7435	5.89e5
CG15347	DRSC18031			6194	3.09e5
CG13313	DRSC09984			7815	5.29e5
cnn (centrosomin)	DRSC05422			5431	3.66e5
cnn (centrosomin)	DRSC07596			6591	4.53e5
HHEX (Hematopoietically expressed homeobox)	DRSC16186		reporter ratio lowered past the hit cutoff	8737	4.08e5
Rcd4 (Reduction in Cnn dots 4)	DRSC02597			7534	3.61e5
Srpk79D (Serine-arginine protein kinase at 79D)	DRSC11668			10030	4.23e5
Srpk79D (Serine-arginine protein kinase at 79D)	DRSC11856			7062	4.03e5
CG13510	DRSC04152			6507	4.27e5
CG3251	DRSC00586			11056	6.49e5
CG14695	DRSC14918			7120	3.66e5
anchor	DRSC10861			9561	4.27e5
mesh	DRSC14472			3056	4.09e5
mesh	DRSC15098			6466	3.85e5
mesh	DRSC15099			5832	3.15e5
TORIP (Torsin interacting protein)	DRSC10104			8690	3.52e5
CG1309	DRSC08302			7595	3.47e5
CG11703	DRSC14356			8527	3.50e5
CG7239	DRSC03038			13720	1.39e5
CG7239	DRSC23113			4660	3.61e5
CG31287	DRSC13138			4560	3.17e5
AsnS (Asparagine synthetase)	DRSC11468			5807	4.03e5
CG8654	DRSC07231			8167	2.81e5
HDAC4 (Histone deacetylase 4)	DRSC19780			5128	3.65e5
HDAC4 (Histone deacetylase 4)	DRSC25237		reporter ratio raised past the hit cutoff		
emb (embargoed)	DRSC03528			10199	6.14e5
Bap170 (Brahma associated protein 170kD)	DRSC04964			8628	1.76e6
Bap170 (Brahma associated protein 170kD)	DRSC21826			8461	4.90e5
mRpL12 (mitochondrial ribosomal protein L12)	DRSC10467			7727	4.07e5
Sply (Sphingosine-1-phosphate lyase)	DRSC07299	reporter ratio raised past the hit cutoff		4439	1.56e5
CG7840	DRSC03075			13240	6.77e5
CG11327	DRSC02146			7390	3.54e5
CG2202	DRSC19841			4223	3.98e5
Spn42Db (Serpin 42Db)	DRSC05009			7471	4.70e5
Sema1b (Semaphorin 1b)	DRSC07550			7574	3.12e5
Nprl3 (Nitrogen permease regulator-like 3)	DRSC11044			13697	4.71e5
Pgam5-2 (Phosphoglycerate mutase 5-2)	DRSC04278			7112	4.87e5
hppy (happyhour)	DRSC07014			4499	3.29e5
hppy (happyhour)	DRSC07015			5972	3.43e5
hppy (happyhour)	DRSC07016			5936	3.51e5
brv2 (brivido-2)	DRSC10226			6958	4.70e5
cas (castor)	DRSC12373			7039	4.54e5
CG2186	DRSC19838			7347	4.46e5
Akr1B (Aldo-keto reductase 1B)	DRSC10581			9083	4.95e5
Dd (Dullard)	DRSC20539			9410	5.84e5
p130CAS	DRSC07862			5855	4.40e5
p130CAS	DRSC08257			9788	3.00e5
E(spl)mgamma-HLH (Enhancer of split mgamma, helix-loop-helix)	DRSC16699			7648	4.29e5
ND-MWFE (NADH dehydrogenase (ubiquinone) MWFE subunit)	DRSC06364			5707	3.53e5
RpS25 (Ribosomal protein S25)	DRSC16837			7306	5.68e5
CG17508	DRSC07771			6663	3.43e5
Cbs (Cystathionine beta-synthase)	DRSC20553			8952	5.31e5
CG42258	DRSC19741			5500	6.82e5
CG42258	DRSC19783			4231	3.98e5
CG42258	DRSC23161			4664	4.74e5
CG34148 + P5CDh2	DRSC13519			4472	4.58e5
CG1578	DRSC19729			8560	4.46e5
COX7AL2 (Cytochrome c oxidase subunit 7A-like 2)	DRSC00099			4319	4.32e5
Mical (Molecule interacting with CasL)	DRSC14349			6451	4.75e5
Mical (Molecule interacting with CasL)	DRSC14351			6452	5.01e5
Mical (Molecule interacting with CasL)	DRSC15365			5022	3.74e5
Mical (Molecule interacting with CasL)	DRSC15366			6338	4.86e5
mRpL44 (mitochondrial ribosomal protein L44)	DRSC12306			6519	3.84e5
CG30076	DRSC05494			6214	4.63e5

8 of these entries, set out differently:
jv (javelin) [DRSC08832] → stable assay Renilla, run 1 (luminescence) = 5152; stable assay firefly, run 1 (luminescence) = 4.09e5
CG14410 [DRSC19596] → stable assay Renilla, run 1 (luminescence) = 5676; stable assay firefly, run 1 (luminescence) = 4.88e5
ImpE2 (Ecdysone-inducible gene E2) [DRSC08665] → stable assay Renilla, run 1 (luminescence) = 7162; stable assay firefly, run 1 (luminescence) = 4.66e5
Had2 (beta Hydroxy acid dehydrogenase 2) [DRSC05971] → stable assay Renilla, run 1 (luminescence) = 8400; stable assay firefly, run 1 (luminescence) = 4.36e5
sax (saxophone) [DRSC07675] → stable assay Renilla, run 1 (luminescence) = 8002; stable assay firefly, run 1 (luminescence) = 5.33e5
CG12990 [DRSC19510] → stable assay Renilla, run 1 (luminescence) = 6231; stable assay firefly, run 1 (luminescence) = 5.18e5
CG13230 [DRSC06350] → miRNA reporter change = reporter ratio raised past the hit cutoff; stable assay Renilla, run 1 (luminescence) = 6932; stable assay firefly, run 1 (luminescence) = 4.44e5
CG13230 [DRSC26778] → miRNA reporter change = reporter ratio raised past the hit cutoff
